Results are given in words; binding and its absence hold for the method and conditions named. Binding seen in cells or lysates may run through a third protein. These calls come from enrichment with a bait or labelling near it, and not all partners need be listed.

By UniProt entry, the sequences of proteins in these tests, tags left out.
UniProt P78527: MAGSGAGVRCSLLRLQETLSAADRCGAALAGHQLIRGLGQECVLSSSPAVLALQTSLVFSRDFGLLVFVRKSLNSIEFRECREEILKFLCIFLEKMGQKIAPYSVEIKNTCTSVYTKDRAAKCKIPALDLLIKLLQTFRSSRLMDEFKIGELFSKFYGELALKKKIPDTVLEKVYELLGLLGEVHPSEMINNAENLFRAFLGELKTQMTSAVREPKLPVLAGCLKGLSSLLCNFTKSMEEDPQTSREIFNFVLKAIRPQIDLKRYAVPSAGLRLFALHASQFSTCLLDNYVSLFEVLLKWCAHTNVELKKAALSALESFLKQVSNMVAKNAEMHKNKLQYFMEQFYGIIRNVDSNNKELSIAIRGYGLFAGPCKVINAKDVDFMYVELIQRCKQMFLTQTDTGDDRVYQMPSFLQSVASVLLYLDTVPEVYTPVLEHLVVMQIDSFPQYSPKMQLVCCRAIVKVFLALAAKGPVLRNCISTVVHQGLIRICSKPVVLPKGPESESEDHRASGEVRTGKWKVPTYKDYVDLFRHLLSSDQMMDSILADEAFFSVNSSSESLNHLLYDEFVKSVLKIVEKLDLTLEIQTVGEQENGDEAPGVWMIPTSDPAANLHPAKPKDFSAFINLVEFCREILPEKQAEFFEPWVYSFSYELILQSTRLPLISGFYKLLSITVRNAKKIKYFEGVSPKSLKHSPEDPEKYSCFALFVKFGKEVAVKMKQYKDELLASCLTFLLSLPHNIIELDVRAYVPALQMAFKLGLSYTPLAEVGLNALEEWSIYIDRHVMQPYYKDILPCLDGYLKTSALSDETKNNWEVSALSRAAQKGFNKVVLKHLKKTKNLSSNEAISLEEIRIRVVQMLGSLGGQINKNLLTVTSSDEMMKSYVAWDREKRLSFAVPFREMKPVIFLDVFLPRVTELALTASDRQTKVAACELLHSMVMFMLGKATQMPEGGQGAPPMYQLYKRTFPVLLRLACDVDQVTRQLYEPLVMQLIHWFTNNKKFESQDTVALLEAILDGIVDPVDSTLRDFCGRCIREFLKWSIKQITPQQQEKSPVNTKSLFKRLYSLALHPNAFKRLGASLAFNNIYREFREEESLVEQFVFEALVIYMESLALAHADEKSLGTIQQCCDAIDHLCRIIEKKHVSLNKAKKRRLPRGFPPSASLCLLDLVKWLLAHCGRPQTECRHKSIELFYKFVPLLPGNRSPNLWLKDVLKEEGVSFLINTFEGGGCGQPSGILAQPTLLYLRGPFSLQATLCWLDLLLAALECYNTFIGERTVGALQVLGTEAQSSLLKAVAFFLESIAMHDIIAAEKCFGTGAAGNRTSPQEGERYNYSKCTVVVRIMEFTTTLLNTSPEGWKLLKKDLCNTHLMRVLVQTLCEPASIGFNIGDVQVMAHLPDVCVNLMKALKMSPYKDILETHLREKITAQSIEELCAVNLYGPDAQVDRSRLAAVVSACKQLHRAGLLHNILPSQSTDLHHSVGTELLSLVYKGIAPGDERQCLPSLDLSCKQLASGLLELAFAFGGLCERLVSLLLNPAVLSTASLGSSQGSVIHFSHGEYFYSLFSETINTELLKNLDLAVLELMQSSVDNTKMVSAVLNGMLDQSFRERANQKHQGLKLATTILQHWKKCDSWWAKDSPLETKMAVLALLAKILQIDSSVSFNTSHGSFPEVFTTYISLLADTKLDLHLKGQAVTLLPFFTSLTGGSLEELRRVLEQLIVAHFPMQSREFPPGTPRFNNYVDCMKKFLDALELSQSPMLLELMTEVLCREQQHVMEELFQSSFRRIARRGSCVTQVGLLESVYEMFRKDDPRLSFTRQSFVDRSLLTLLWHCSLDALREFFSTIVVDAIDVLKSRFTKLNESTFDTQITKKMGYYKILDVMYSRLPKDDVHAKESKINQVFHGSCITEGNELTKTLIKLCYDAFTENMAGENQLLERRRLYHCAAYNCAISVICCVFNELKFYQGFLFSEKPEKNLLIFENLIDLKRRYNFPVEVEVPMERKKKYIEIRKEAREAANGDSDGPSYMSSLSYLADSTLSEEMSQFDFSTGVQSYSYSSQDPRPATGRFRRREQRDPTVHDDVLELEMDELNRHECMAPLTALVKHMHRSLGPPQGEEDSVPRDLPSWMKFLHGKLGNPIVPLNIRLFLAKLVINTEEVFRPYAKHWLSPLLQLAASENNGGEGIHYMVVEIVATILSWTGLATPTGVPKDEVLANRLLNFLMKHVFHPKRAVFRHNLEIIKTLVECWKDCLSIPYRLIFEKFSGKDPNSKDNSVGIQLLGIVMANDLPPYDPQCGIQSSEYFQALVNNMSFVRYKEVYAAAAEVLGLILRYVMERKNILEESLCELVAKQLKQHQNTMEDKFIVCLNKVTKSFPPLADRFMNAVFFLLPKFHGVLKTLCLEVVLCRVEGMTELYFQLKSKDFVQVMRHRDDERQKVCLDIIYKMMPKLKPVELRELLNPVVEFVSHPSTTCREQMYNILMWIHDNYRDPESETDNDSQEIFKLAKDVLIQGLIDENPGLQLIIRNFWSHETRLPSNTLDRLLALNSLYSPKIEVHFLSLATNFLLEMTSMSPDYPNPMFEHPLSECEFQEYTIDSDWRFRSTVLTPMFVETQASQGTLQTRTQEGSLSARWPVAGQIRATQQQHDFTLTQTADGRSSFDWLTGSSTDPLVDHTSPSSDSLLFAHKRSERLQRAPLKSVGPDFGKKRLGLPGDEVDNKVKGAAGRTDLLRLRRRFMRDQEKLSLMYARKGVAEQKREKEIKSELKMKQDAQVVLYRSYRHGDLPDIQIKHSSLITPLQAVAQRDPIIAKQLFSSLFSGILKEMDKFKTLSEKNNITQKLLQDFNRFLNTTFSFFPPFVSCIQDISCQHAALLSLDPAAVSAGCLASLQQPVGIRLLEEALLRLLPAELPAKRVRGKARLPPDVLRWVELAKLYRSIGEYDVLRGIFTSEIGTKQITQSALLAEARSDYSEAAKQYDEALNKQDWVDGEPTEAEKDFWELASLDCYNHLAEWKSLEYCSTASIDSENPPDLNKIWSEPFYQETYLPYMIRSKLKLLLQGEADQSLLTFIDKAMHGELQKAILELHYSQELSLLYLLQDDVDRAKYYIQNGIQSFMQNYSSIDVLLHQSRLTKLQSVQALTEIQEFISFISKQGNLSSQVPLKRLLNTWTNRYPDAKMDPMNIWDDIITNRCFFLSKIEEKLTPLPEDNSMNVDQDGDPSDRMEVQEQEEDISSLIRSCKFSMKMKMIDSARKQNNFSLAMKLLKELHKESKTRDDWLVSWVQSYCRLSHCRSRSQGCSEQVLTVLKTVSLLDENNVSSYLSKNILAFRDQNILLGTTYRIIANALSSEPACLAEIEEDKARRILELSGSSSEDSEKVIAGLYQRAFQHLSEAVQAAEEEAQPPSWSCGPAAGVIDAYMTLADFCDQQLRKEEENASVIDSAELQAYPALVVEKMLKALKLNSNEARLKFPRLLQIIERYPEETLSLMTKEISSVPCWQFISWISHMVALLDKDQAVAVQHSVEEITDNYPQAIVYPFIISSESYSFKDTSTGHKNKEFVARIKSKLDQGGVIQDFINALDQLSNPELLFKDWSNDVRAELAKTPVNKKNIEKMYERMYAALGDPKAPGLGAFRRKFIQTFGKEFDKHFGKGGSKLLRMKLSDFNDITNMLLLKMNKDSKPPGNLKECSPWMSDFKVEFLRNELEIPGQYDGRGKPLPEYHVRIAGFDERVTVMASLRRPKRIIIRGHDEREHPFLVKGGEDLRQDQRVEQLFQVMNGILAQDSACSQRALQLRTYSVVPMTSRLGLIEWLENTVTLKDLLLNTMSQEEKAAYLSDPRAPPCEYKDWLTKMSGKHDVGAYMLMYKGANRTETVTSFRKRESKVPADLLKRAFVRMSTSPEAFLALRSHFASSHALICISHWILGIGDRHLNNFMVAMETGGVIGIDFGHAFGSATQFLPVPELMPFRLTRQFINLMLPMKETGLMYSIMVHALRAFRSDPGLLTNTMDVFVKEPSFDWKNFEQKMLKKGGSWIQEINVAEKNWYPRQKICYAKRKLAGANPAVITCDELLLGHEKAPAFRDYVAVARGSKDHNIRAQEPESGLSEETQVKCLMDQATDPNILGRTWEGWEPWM

The assay deals with human LRF tagged with Flag and haemagglutinin (HA) epitopes (human) (UniProt O95365).

Regarding “DNA-PKcs (catalytic subunit of DNA-dependent protein kinase), endogenous in HeLa (from UniProt P78527 1-4128)”, the binding entry is listed as “binds”.

The record behind these values is paper PMC4633636.
